Several values for one entry are separate records, joined by “and”; a condition that tells them apart may be missing. Equal values may be shown once. The whole screen tested about 360,000 compounds, of which about 7,500 (2.1%) were called active. Inconclusive means that the source gave no clear call. Such entries were picked first, then a sample of the others. The call rests on the fitted dose curve; in most records, active means well fitted inhibition curve with a large enough effect; inconclusive means small, poorly fitted or top-dose-only effect, or effect the other way; inactive means flat fitted curve, though single readings scatter. A potency beside an inconclusive call is a rough fit, not a confirmed value. The source holds several records for some structures; these can differ, active in one and inactive in another.
experiment: Nrf2 qHTS screen for inhibitors; details: A549 ARE-Fluc reporter, luciferase luminescence, 18-24 h; activity change, negative = inhibition: at 46 µM (top of the series); further: nearly all actives have a fitted effect of over 60% in size
Procedure, shortened: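 A549 ARE_Fluc cells (5000/well, 5% FBS OPTI-MEM) pre-incubated 2 h, then treated with compounds 18-24 h at 37C/5% CO2 in concentration-response. CellTiter-Fluor viability read first; BugLite luciferase luminescence after 15 min at room temperature gives Nrf2 activity.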
On the % scale 0 is the no-effect control and ±100 the full control effect; potency means the concentration at half of the fitted maximal effect.

Structure (SMILES)	Potency	activity change, negative = inhibition
CC(=O)N1CCN(S(=O)(=O)c2cccc(C(=O)OCc3ccc(C(C)(C)C)cc3)c2)CC1	active: 23.1 µM	
CCCCNC(=O)c1cc2c(=O)n(CC)c3ccccc3c2s1	inconclusive: 14.6 µM [falling, partial curve, poor fit]	
Cc1cc(C)c2c(N)c(C(=O)NN3CC(=O)N(c4cccc(Cl)c4)CC3=O)sc2n1		inactive: -3%
Cc1cc(NC(=O)c2ccccc2[N+](=O)[O-])ccc1Br	inconclusive: 14.6 µM [activator, partial curve]	
CN(C)C(CNC(=O)c1cc(S(=O)(=O)N(C)c2ccc(F)cc2)ccc1Cl)c1ccco1 (stereo unspecified)		inactive: 8.02%
COc1ccc(-n2ccnc(NCc3cccs3)c2=O)cc1	inconclusive: 29.1 µM [falling, single point]	
O=C(NCCc1ccccc1)c1ccco1	inconclusive: 16.4 µM [activator, single point]	
O=S1(=O)C2CC3OC2(CC3c2ccc(F)cc2)CN1Cc1ccc(Cl)cc1 (stereo unspecified)	inconclusive: 16.4 µM [falling, partial curve, poor fit]	
O=C(O)c1ccccc1CSc1nc2ccccc2n1Cc1ccccc1C(=O)O		inactive: -0.238%
CC(C)C(=O)N1CCC(c2nc(-c3ccc(S(=O)(=O)N4CCCC4)cc3)no2)CC1		inactive: -23.8%
COc1ccc(-c2ocnc2C(=O)Nc2ccccc2N2CCCCC2)cc1		inactive: -21.5%
COc1ccc(-c2ccc(-c3noc(-c4cc(OC)cc(OC)c4)n3)c(OC)n2)cc1		inactive: 1.24%
O=C(CCCCCCCCC(=O)N1CCCCC1)N1CCCCC1	inconclusive: 11.6 µM [falling, partial curve]	
O=C(Nc1cccc(O)c1)C(=O)Nc1ccccn1	inconclusive: 11.6 µM [activator, partial curve]	
CCOC(=O)N1CCC(NC(=O)c2ccc(CS(=O)(=O)c3ccc(OC)cc3)o2)CC1	inconclusive: 1.3 µM [falling, full curve]	
CCNc1nc(CSc2ccccc2)nc2sc(C)c(C)c12	inconclusive: 29.1 µM [falling, single point]	
COc1cc2c(=O)n(Cc3ccco3)c(=O)n(CC(=O)Nc3ccc(F)cc3)c2cc1OC	inconclusive: 32.6 µM [falling, single point]	
O=C(COC(=O)c1cc([N+](=O)[O-])ccc1NCCO)c1ccccc1	inconclusive: 25.9 µM [falling, partial curve, poor fit]	
CSc1ncc(Cl)c(C(=O)Nc2cc(C(F)(F)F)ccc2Cl)n1		inactive: 25.6%
CCC(=O)N/C(N)=N/c1nc2ccccc2o1	inconclusive: 11.6 µM [activator, partial curve]	
CC(=O)c1ccc(NC(=O)c2cccs2)cc1	inconclusive: 0.58 µM [activator, full curve, poor fit]	
COc1ccc(C(=O)O)cc1NC(=S)NC(=O)/C=C/c1ccc(C(C)C)cc1		inactive: 20.6%

Structure (SMILES)	Potency	activity change, negative = inhibition
COc1cc(/C=C/C(=O)c2ccc(C)c([N+](=O)[O-])c2)cc(OC)c1O	inconclusive: 0.731 µM [falling, partial curve, poor fit]	
COc1ccc(C(=O)C2CCCN(Cc3ccc4nonc4c3)C2)c(C)c1 (stereo unspecified)	inconclusive: 29.1 µM [falling, single point]	
Cc1cccc(NC(=O)c2cc(-c3cc(C)c(C)cc3O)n[nH]2)c1	inconclusive: 16.4 µM [activator, partial curve, poor fit]	
O=C(O)c1ccc(NCc2nc3ccccc3n2CCOc2ccccc2Cl)cc1	inconclusive: 20.6 µM [falling, single point]	
CC1CCCCN1S(=O)(=O)c1ccc(C(=O)Nc2nnc(C3=COCCO3)o2)cc1 (stereo unspecified)	inconclusive: 29.1 µM [falling, single point]	
Cc1onc(-c2ccccc2Cl)c1NC(=O)NCc1cccs1	inconclusive: 2.59 µM [activator, partial curve, poor fit]	
Cc1nc(SCC(=O)Nc2ccccc2Cl)c2c(C)c(C)sc2n1	inconclusive: 20.6 µM [falling, partial curve, poor fit]	
Cc1ccc(C)c(N2CCN(C(=O)CCCn3c(=S)[nH]c4cc5c(cc4c3=O)OCO5)CC2)c1	inconclusive: 25.9 µM [falling, partial curve, poor fit]	
Cc1ccc(S(=O)(=O)N2CCCCC2)cc1NC(=O)CSc1nncn1-c1ccccc1	active: 18.4 µM	
COCCn1c(=O)[nH]c2cc(C(=O)N3CCN(c4ccc(Cl)cc4)CC3)ccc2c1=O	active: 5.8 µM	
COc1cc(F)c(S(=O)(=O)N2CCN(S(=O)(=O)c3cccc(NC(C)=O)c3)CC2)c(F)c1		inactive: -13.7%
CC(C)CN1CCN(Cc2nc3ccccc3s2)CC1CCO (stereo unspecified)	inconclusive: 32.6 µM [activator, partial curve, poor fit]	
Cc1ccc2c(c1)C(=O)C(=O)N2Cc1ccc(OCCC(C)C)cc1		inactive: 19.6%
O=C(CSC(=S)N1CCSCC1)c1ccccc1	inconclusive: 14.6 µM [activator, partial curve]	
N#CC1=C(N)SC(N)=C(C#N)C1c1cccc(Oc2ccccc2)c1	inconclusive: 29.1 µM [falling, single point]	
COc1ccc(NC(=O)c2cc(C(C)=O)n3ccccc23)cc1	inconclusive: 2.31 µM [activator, partial curve, poor fit]	
O=C(Cn1[nH]c(=O)c2ccccc2c1=O)NCCN1C(=O)S/C(=C\c2ccccc2)C1=O	inconclusive: 10.3 µM [falling, partial curve]	
O=C(COc1ccc(-n2cnnn2)cc1)Nc1ccc(F)c(F)c1F	inconclusive: 4.61 µM [falling, full curve]	
CC1C/C(=C/c2ccccn2)C(=O)/C(=C/c2ccccn2)C1 (stereo unspecified)	active: 16.4 µM	
Cc1nnc(SCCn2c(N3CC(C)CC(C)C3)nc3c2c(=O)[nH]c(=O)n3C)s1 (stereo unspecified)	inconclusive: 13 µM [falling, partial curve, poor fit]	
COc1cc(C(=O)N/C(=C\c2cn(S(=O)(=O)N(C)C)c3ccccc23)C(=O)NCCCO)cc(OC)c1OC	inconclusive: 6.51 µM [falling, single point]	
O=C(COc1ccccc1Cl)Nc1cccc(S(=O)(=O)N2CCCC2)c1	inconclusive: 18.4 µM [falling, single point]	

Taken from above.
CCNc1nc(CSc2ccccc2)nc2sc(C)c(C)c12 | Potency: inconclusive: 29.1 µM [falling, single point]
Cc1ccc(C)c(N2CCN(C(=O)CCCn3c(=S)[nH]c4cc5c(cc4c3=O)OCO5)CC2)c1 | Potency: inconclusive: 25.9 µM [falling, partial curve, poor fit]
O=C(NCCc1ccccc1)c1ccco1 | Potency: inconclusive: 16.4 µM [activator, single point]
O=C(CCCCCCCCC(=O)N1CCCCC1)N1CCCCC1 | Potency: inconclusive: 11.6 µM [falling, partial curve]
CC1C/C(=C/c2ccccn2)C(=O)/C(=C/c2ccccn2)C1 (stereo unspecified) | Potency: active: 16.4 µM
Cc1nnc(SCCn2c(N3CC(C)CC(C)C3)nc3c2c(=O)[nH]c(=O)n3C)s1 (stereo unspecified) | Potency: inconclusive: 13 µM [falling, partial curve, poor fit]

Carrying on:

Structure (SMILES)	Potency	activity change, negative = inhibition
CCn1nc(C)cc1C(=O)N1CCCC(C(=O)c2ccc(Oc3ccccc3)cc2)C1 (stereo unspecified)	inconclusive: 20.6 µM [falling, single point]	
CC(=O)Nc1ccc(S(=O)(=O)Nc2nnc(C(C)C)s2)cc1	inconclusive: 0.411 µM [falling, partial curve, poor fit]	
CCOC(=O)N1CCN(C(=O)COc2ccc3c(c2)C(=O)CC(C)(C)O3)CC1		inactive: -3.29%
Cc1nc(N2CCN(c3ccccn3)CC2)c2c(C)c(C(=O)Nc3ccc(Cl)cc3)sc2n1	inconclusive: 11.6 µM [falling, partial curve, poor fit]	
CC(=O)N1CCc2cc(S(=O)(=O)NC(C)c3ccccc3)ccc21 (stereo unspecified)	inconclusive: 13 µM [falling, partial curve]	
CC(C)n1nnc(-c2ccc(OCc3ccccc3F)cc2)n1	inconclusive: 5.17 µM [activator, full curve]	
O=C(O)C1C(C(=O)Nc2ccc(Cl)cc2)C2C=CC1C21CC1 (stereo unspecified)		inactive: -14.1%
O=S(=O)(c1cccc(F)c1)N1CCN(C(=S)NCC2CCCO2)CC1 (stereo unspecified)	inconclusive: 25.9 µM [falling, partial curve, poor fit]	
COc1ccc(NC(=S)N/C(=N/S(=O)(=O)c2ccc(C)cc2)c2ccccc2)cc1	inconclusive: 20.6 µM [activator, single point]	
COc1ccc(/C=C(/NC(=O)c2ccc(Br)cc2)C(=O)N2CCOCC2)cc1	inconclusive: 13 µM [falling, partial curve, poor fit]	
CCn1c(CC(=O)Nc2ccccc2C)nnc1SCC(=O)NC1=NCCS1	inconclusive: 0.517 µM [activator, full curve, poor fit]	
O=C1C(NS(=O)(=O)c2cccs2)=C(N2CCN(c3cccc(C(F)(F)F)c3)CC2)C(=O)c2ccccc21	active: 20.6 µM	
CCOC(=O)N1CCC(NC(=O)c2cnn(-c3ccc(F)cc3)c2-n2cccc2)CC1		inactive: 15.4%
Cc1[nH]c2ccccc2c1SCC(=O)NNC(=O)Nc1ccc(OC(F)(F)F)cc1		inactive: -3.6%
CCN(CC)c1cc(C)c2cc(NC(=O)/C=C/c3ccccc3Cl)ccc2n1		inactive: -2.75% [at 9.27 µM]
CC(=O)N1c2ccc(Cl)cc2C2OCCC2C1c1ccco1 (stereo unspecified)		inactive: 0.255%
CCOC(=O)C1=C(C)Nc2ccccc2N=C1NC(=O)c1cccc(S(=O)(=O)NCc2ccccc2)c1	inconclusive: 29.1 µM [falling, single point]	
COc1ccc(CNC(=O)CC(C)n2nc(C)cc2C)cc1 (stereo unspecified)		inactive: 4.12%
Cc1[nH]c2ccccc2c1N=Nc1ccc(F)cc1	active: 25.9 µM	
CN1OC[C@@H]2CN(Cc3cc(Cl)cc(Cl)c3)[C@H](c3cccc(Br)c3)C[C@@H]21	inconclusive: 29.1 µM [falling, partial curve, poor fit]	
Cc1cccc(N(C)S(=O)(=O)c2ccc(-c3cc(C)no3)s2)c1	inconclusive: 7.31 µM [activator, partial curve] and inconclusive: 4.11 µM [activator, partial curve, poor fit]	
CCC1CCCCN1S(=O)(=O)c1ccc(C(=O)Nc2nnc(C3=COCCO3)o2)cc1 (stereo unspecified)	inconclusive: 20.6 µM [falling, single point]	

Reference: PubChem BioAssay AID504444 (National Center for Advancing Translational Sciences (NCATS), 2011)
